Measurements reported in publication PMC6628272.
No constants are given. Whether binding was seen depends on the method and setting. Binding seen in cells or lysates may run through a third protein. Some entries that bind do so weakly or less than the wild type.

Amino acid sequences for entries named in this document (tags omitted).
UniProt P40763: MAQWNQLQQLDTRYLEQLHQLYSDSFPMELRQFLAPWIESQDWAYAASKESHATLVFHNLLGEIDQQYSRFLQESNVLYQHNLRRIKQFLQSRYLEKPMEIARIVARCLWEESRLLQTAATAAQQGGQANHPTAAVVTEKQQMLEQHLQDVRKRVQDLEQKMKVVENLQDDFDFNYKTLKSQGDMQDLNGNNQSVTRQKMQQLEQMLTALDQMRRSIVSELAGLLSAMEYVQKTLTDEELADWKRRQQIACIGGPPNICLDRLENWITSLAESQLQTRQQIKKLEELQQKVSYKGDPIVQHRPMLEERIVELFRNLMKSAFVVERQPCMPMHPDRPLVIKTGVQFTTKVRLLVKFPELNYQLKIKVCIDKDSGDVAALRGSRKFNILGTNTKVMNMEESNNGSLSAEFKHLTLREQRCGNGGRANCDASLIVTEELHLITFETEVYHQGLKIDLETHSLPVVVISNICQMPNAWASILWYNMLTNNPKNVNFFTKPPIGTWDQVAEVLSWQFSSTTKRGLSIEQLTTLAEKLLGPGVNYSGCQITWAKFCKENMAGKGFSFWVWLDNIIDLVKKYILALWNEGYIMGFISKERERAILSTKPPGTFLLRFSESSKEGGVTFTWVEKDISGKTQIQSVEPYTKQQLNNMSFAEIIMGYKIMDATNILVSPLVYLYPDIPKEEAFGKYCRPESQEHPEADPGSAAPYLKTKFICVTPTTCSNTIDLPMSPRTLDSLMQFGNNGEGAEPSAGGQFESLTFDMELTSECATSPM
UniProt Q09472: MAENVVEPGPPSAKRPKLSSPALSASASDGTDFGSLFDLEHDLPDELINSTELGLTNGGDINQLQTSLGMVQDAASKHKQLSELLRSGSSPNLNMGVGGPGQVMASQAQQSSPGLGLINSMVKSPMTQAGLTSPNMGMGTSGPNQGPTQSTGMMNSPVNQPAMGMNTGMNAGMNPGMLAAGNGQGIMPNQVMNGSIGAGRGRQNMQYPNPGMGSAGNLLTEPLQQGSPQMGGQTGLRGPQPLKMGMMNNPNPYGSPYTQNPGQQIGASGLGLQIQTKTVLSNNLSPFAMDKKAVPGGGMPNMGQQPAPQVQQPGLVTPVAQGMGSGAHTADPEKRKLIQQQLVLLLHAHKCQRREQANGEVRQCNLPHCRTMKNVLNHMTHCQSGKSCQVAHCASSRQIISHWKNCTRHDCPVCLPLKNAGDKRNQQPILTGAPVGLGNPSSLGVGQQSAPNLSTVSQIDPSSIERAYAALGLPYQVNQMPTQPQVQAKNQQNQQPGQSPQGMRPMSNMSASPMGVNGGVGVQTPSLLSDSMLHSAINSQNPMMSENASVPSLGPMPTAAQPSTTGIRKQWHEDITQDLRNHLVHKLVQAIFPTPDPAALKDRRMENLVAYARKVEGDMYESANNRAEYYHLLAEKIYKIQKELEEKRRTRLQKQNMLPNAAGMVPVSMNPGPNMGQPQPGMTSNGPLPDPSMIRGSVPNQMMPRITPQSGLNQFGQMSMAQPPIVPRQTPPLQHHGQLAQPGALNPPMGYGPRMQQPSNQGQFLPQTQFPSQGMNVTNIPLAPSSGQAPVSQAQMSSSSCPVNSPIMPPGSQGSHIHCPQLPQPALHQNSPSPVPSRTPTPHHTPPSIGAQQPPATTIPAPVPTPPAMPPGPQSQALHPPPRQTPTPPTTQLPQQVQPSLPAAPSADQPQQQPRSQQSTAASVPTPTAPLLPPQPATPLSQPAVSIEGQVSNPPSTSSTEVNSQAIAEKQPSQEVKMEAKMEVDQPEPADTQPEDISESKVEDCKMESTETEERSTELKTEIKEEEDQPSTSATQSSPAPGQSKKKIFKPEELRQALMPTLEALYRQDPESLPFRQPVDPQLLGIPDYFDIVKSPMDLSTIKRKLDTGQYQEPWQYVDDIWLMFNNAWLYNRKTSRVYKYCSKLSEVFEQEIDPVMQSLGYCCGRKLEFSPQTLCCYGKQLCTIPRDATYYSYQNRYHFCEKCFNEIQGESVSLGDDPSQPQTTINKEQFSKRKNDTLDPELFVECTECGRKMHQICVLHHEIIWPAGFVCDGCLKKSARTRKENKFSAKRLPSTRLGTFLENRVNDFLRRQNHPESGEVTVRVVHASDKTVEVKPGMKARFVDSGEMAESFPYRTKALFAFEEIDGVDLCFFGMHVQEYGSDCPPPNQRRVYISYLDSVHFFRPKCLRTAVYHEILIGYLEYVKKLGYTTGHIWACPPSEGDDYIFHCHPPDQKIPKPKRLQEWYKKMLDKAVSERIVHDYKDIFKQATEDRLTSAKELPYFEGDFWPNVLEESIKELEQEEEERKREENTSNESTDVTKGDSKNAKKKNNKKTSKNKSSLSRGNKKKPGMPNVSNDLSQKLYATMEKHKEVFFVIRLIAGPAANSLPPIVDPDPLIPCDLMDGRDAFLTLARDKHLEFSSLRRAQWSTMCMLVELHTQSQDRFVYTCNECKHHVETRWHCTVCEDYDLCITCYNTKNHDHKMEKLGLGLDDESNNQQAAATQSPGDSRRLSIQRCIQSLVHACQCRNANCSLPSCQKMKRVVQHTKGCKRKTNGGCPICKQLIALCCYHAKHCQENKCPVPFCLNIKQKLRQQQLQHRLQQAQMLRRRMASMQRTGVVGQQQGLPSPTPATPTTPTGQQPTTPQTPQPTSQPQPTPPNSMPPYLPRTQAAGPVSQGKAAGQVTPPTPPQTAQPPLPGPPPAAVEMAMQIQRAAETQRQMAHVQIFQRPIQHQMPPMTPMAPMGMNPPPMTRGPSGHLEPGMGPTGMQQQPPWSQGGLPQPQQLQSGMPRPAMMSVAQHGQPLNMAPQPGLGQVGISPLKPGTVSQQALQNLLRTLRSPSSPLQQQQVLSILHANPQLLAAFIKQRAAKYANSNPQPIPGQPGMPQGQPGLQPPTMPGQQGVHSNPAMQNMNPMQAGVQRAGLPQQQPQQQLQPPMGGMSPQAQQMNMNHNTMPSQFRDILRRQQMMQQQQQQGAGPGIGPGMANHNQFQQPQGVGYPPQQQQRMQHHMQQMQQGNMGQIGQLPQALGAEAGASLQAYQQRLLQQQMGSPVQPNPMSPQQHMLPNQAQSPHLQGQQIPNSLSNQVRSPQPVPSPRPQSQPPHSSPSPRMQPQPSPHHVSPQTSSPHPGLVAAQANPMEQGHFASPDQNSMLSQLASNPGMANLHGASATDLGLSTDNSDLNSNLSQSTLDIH

Target: Signal transducers and activators of transcription 3 (STAT3) (human (endogenous in MCF-7 and DU145)) (UniProt P40763)
Assay: co-IP; MCF-7 and DU145 cell lysates immunoprecipitated with STAT3 and p300 antibodies, protein A/G sepharose beads, immunoblotting; cells with or without lambertianic acid (LA) for 24 h

p300 (from UniProt Q09472 1-2414)
binding: binds
